In patent US20180318199A1, “Pharmaceutical Composition Having Anti-Aging Properties against High-Glucose” (TAIWAN LEADER BIOTECH CORP., priority 2017, published 2018):
At least one compound was matched to its structure with a doubt left.

What was measured:
Assay type in all cases: cell-based, human
HNDFs = test: SA-β-gal senescence assay in HG-induced HNDFs; settings: inhibitor 30 μM + HG 30 mM, 72 h (FIG. 4H)
Protocol: Next, the protective effects of antcins on HG-induced HNDF senescence are examined. In FIG. 2B, cells were incubated with ANA (10 μM), ANH (10 μM) and ANM (10 μM) in the presence of HG (30 mM) for 72 h. Cellular senescence is determined by SA-β-gal activity. […] After cells are co-incubated with HG and antcins (ANA, ANH and ANM) for 72 h, senescence is measured by SA-β-gal assay.
Therefore, in order to examine whether the ROS inhibitory effect may be extended to suppress HG-induced senescence, HG-induced senescenece eliminated by ANM is examined. In FIG. 4B, HNDFs are incubated with ANM (10 μM) or NAC (100 μM) in the presence or absence of HG (30 mM) for 72 h. Cellular senescence is determined by SA-β-gal assay. […] As is shown, cells are co-incubated with HG and ANM or NAC for 72 h.
Senescence-associated β-galactosidase (SA-β-gal) activity is determined in formaldehyde-fixed histochemical staining kit according to the manufacturer's instructions (Cell Signaling Technology, Danvers, Calif.). Briefly, cells are grown in 6-well plates at a density of 5×10^4 cells/well, and incubated with HG or test samples for 48 h (HUVECs) or 72 h (HNDFs). After incubation, cells are stained with SA-β-gal staining solution at pH 6.0 overnight and then the development of blue staining is observed and photographed under a bright-field microscope (Motic Electric Group, Xiamen, P.R. China).

Nrf2 = test: ARE luciferase reporter assay (Nrf2 transcriptional activity) in HNDFs; settings: inhibitor 30 μM 2 h, then ANM 10 μM + HG 30 mM 6 h
Protocol: Therefore, to determine whether ANM augments Nrf2 transcriptional activity, ARE-harboring luciferase reporter assay is used. In FIG. 5E, to determine the Nrf2 transcriptional activity, HNDFs are transiently transfected with ARE promoter construct using lipofectamine and incubated with ANM (10 μM) or NAC (100 μM) in the presence or absence of HG (30 mM) for 6 h. Cell lysates are mixed with luciferase reagents and quantified using an illuminometer. Relative ARE promoter activity is calculated by dividing the relative luciferace unit (RLU) of treated cells by RLU of untreated cells (NG).
Activation of P13K/AKT and mitogen-activated protein kinases (MAPKs), including ERK1/2, JNK/SAPK and p38 MAPK, facilitates Nrf2 transcriptional activation in a variety of human cell lines. […] To elucidate the upstream signaling events involved in ANM-induced Nrf2 transcriptional activity, cells are pre-incubated with pharmacological inhibitors of P13K/AKT (LY294002), ERK1/2 (PD98059), SAPK/JNK (SP600125) and p38MAPK (SB203580) for 2 h and treated with ANM for 6 h in the presence of HG. […]
ARE promoter activity is measured using a dual-luciferase reporter assay system (Promega, Madison, Wis.). […] The cell lysate is prepared and incubated with luciferase agents and the relative luminescence intensity is quantified using a spectrophotometer (Hidex Oy, Turku, Finland).

p53 and FoxO1 = test: Western blot of p53 and FoxO1 acetylation/phosphorylation in HNDFs; settings: pharmacological inhibitor in the presence of HG (FIG. 4G)
Protocol: It is well known that p16^INK4A and p21^CIP1 are regulated by transcription factors p53 and FoxO1 followed by acetylation. […] In addition, p53 phosphorylation at Ser15 by their upstream kinases promotes transcriptional activation in response to DNA damage.
To further examine the phenomenon that HG-induced p53 activation is relayed by the p38 MAPK or JNK/SAPK cascade, cells are incubated with corresponding pharmacological inhibitors, SB203580, SP600125, PD98059 and LY294002 for p38MAPK, JNK/SAPK, ERK1/2 and P13K/AKT, respectively in the presence of HG.
(§1) The protein expression levels of SIRT-1, SIRT-6, p21^CIP1, SMP30, p53, FoxO and acetylation of p53 and FoxO1 are determined by western blot analysis.
(§2) Cells are lysed by either RIPA lysis buffer or nuclear and cytoplasmic extraction reagents (Thermo Fisher Scientific). Protein concentrations are determined by Bio-Rad protein assay reagent (Bio-Rad Laboratories, Hercules, Calif.). Equal amounts of protein samples (60 μg) are separated by 7-12% SDS-PAGE and the separated proteins are transferred onto polyvinylidene chloride (PVDC) membrane overnight. […] The blots are detected using VL Chemi-Smart 3000 (Viogene Biotek, Sunnyvale, Calif.) with the enhanced chemiluminescence (ECL) western blotting reagent (Millipore, Billerica, Mass.).

SIRT-1, SIRT-3, SIRT-6 = test: Western blot of SIRT proteins and phos-SIRT-1 in HNDFs; settings: inhibitor 30 μM + HG, 72 h
Protocol: Total cell lysate is extracted and subjected to western blot analysis to monitor SIRT-1, SIRT-3, SIRT-6 protein levels.
as §1
To further understand the regulation of SIRT-1 by ANM, the effect of ANM on SIRT-1 activation and protein stability is examined under hyperglycemic conditions. In FIG. 7I, cells are incubated with JNK/SAPK or p38 MAPK inhibitors SP600125 (SP, 30 μM) and SB203580 (SB, 30 μM) in the presence of HG for 72 h. The protein expression levels of phos-SIRT-1 and SIRT-1 are determined by western blotting. Results are expressed as mean±S.E.M of three independent experiments. Statistical significance is set at ^ϕP<0.05 as compared to NG vs. HG and *P<0.05 as compared to HG vs. samples. Previous studies have shown that hyperphosphorylation of SIRT-1 at serine 47 (Ser47) is correlated with enhanced endothelial senescence. […]
as §2, with “Calif.).” for “Calif.). Equal amounts of protein samples (60 μg) are separated by 7-12% SDS-PAGE and the separated proteins are transferred onto polyvinylidene chloride (PVDC) membrane overnight.”

Row | SMILES | HG-induced SA-β-gal activity, kinase inhibitors (HNDFs) | ANM-induced ARE luciferase activity after inhibitor pretreatment (Nrf2) | HG-induced p16^INK4A expression and p53 phosphorylation, kinase inhibitors (p53 and FoxO1) | SIRT-1 phosphorylation and reduction in SIRT-1, kinase inhibitors (SIRT-1, SIRT-3, SIRT-6)
1 | O=c1cc(N2CCOCC2)oc2c(-c3ccccc3)cccc12 [LY294002] | reduces | effectively suppresses | partial reduction | –
2 | Oc1c2ccccc2c2c3c(cccc13)N=N2 [SP600125, reference compound] | barely observed | partially or barely inhibits | partial reduction | inhibits
